Earlier results, collected in US11266647B2, “Method for increasing cell proliferation in pancreatic beta cells, treatment method, and composition” (ICAHN SCHOOL OF MEDICINE AT MOUNT SINAI, priority 2016, dated 2022).
Some results were stated once for a whole list of compounds, not compound by compound. At least one compound was matched to its structure with a doubt left. Some compounds share one range, which may span the group rather than tell each member.

Test system: human beta cells
Details: DYRK1A inhibitor alone, previous reports; cited from earlier work

Nc1ncnc2c1c(I)cn2[C@@H]1O[C@H](CO)[C@@H](O)[C@H]1O [5-IT, 5-iodotubercidin]
"rates" of proliferation or labeling indices: 1.5-3 %/day

COc1ccc2c(c1)[nH]c1c(C)nccc12 [harmine]
"rates" of proliferation or labeling indices: 1.5-3 %/day
